Several values for one entry are separate records, joined by “and”; a condition that tells them apart may be missing. Equal values may be shown once. Some of the results follow. These are further read-outs of the screen, such as a control signal, another cell line or another target. No call is given for them. For some of these results: Most of these compounds were active or inconclusive in the main read-out, so they are no random draw.
Legend:
PubChem AID 1586 = conditions: yeast two-hybrid polyglutamine protein interaction, reporter readout; measured here: averaged growth delta OD
[1] = enhancers of SMN2 over SMN1 splicing, cell-based, SMN2/SMN1 luciferase reporters (AID 1598); conditions: SMN2 vs SMN1 luciferase splicing reporter cells, at 10 µM; SMN1 luciferase ratio: measured here: SMN1 luciferase reporter average; SMN2 luciferase ratio: measured here: SMN2 luciferase reporter average, stronger effect = higher value
[2] = protection against mutant huntingtin cytotoxicity, PC12 cells, LDH release (AID 1610); conditions: PC12 mutant huntingtin toxicity, final LDH at 4 uM, stronger effect = lower value

SMILES	signal change (36 h minus 0 h) (PubChem AID 1586)	SMN1 luciferase ratio [1]	SMN2 luciferase ratio [1]	normalised LDH release [2]
NC(=O)c1cc([N+](=O)[O-])cc([N+](=O)[O-])c1	0.0975	0.87	0.85	0.954
CN=C1CN(O)C(c2ccccc2)=c2cc(Cl)ccc2=N1	0.337	0.81	0.91	0.847
CCCCCCCCCCCCCCCC[N+](C)(C)C	-0.00805	0.35	0.43	0.889
CNC(C)C(O)c1ccccc1 (stereo not given)	0.126 and 0.0939	0.98 and 1.03	1.01 and 1.02	0.526 and 1.03
COc1ccc2c3c([nH]c2c1)C(C)=NCC3	0.0301	1	0.9	0.933
CCC(C)[C@H]1O[C@]2(C=C[C@@H]1C)C[C@@H]1C[C@@H](C/C=C(\C)[C@@H](OC3C[C@H](OC)C(O[C@H]4C[C@H](OC)[C@@H](O)[C@H](C)O4)[C@H](C)O3)[C@@H](C)/C=C/C=C3\CO[C@@H]4[C@H](O)C(C)=C[C@@H](C(=O)O1)[C@]34O)O2 (stereo not given in full)	0.0025	0.88	0.87	1.03
CC(=O)OCC1=C(C(=O)O)N2C(=O)[C@@H](NC(=O)CCCC(N)C(=O)O)C2SC1 (stereo not given in full)	0.0782	0.96	0.94	0.862
O=C1CN=C(c2ccccc2)c2cc(Cl)ccc2N1	0.226	0.9	0.96	0.967
C[C@H]1O[C@@H](O[C@H]2[C@@H](O)C[C@H](O[C@H]3[C@@H](O)C[C@H](O[C@H]4CC[C@]5(C)C6CC[C@]7(C)[C@@H](C8=CC(=O)OC8)CC[C@]7(O)C6CC[C@@H]5C4)O[C@@H]3C)O[C@@H]2C)C[C@H](O)[C@@H]1O (stereo not given in full)	-0.0985	0.04	0.08	1.1
O=C1Nc2ccc(Cl)cc2C(c2ccccc2Cl)=NC1O (stereo not given)	0.186	0.98	0.95	1.03

Not a retest: entries from further up.
SMILES	signal change (36 h minus 0 h) (PubChem AID 1586)	SMN1 luciferase ratio [1]	SMN2 luciferase ratio [1]	normalised LDH release [2]
COc1ccc2c3c([nH]c2c1)C(C)=NCC3	0.0301	1	0.9	0.933
CCC(C)[C@H]1O[C@]2(C=C[C@@H]1C)C[C@@H]1C[C@@H](C/C=C(\C)[C@@H](OC3C[C@H](OC)C(O[C@H]4C[C@H](OC)[C@@H](O)[C@H](C)O4)[C@H](C)O3)[C@@H](C)/C=C/C=C3\CO[C@@H]4[C@H](O)C(C)=C[C@@H](C(=O)O1)[C@]34O)O2 (stereo not given in full)	0.0025	0.88	0.87	1.03
